PubChem BioAssay AID1259308 | NCATS, 2017

- Screen: 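Candidate targets for better recombinant protein yield in mammalian cells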 (primary screen)
- Cells: human HEK293 embryonic kidney cells stably expressing firefly luciferase (HEK-CMV-Luc2-Hygro)
- Reagents: single siRNA against human genes, 0.8 pmol siRNA per well
- Duration: 72 h
- Measurement: 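Reporter luminescence and viable-cell signal on separate replicate plates, given as percent of non-targeting control and median/MAD z-scores, plus per-cell luciferase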
- Direction: total luciferase, z-score: higher = more reporter protein produced
- Active means: 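Active when the median/MAD z-score for overall luciferase is greater than 3; a gene was taken forward for validation with new siRNAs if at least two of its three siRNAs passed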
- Meaning of the calls: active = raised luciferase; inactive = no rise
The deposit covers about 59,000 reagents; this is a part drawn at random. In the full data, about 1,510 (2.6%) were called active. 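Calls use total luciferase alone and ignore viability, so some active siRNAs may act by altering cell number.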 The numbers tell different reagents against one gene apart. Further read-outs or replicates are left out here.

gene knocked down | reagent no. | total luciferase, z-score | outcome
PSMD10 | 1 | -0.945 | inactive
PSMD10 | 2 | -1.01 | inactive
PSMD10 | 3 | -0.649 | inactive
PRSS50 | 1 | -1.11 | inactive
PRSS50 | 2 | -1.02 | inactive
PRSS50 | 3 | -0.342 | inactive
CACNG6 | 1 | -1.59 | inactive
CACNG6 | 2 | -1.3 | inactive
CACNG6 | 3 | -1.09 | inactive
TCEAL6 | 1 | -1.7 | inactive
TCEAL6 | 2 | -1.06 | inactive
TCEAL6 | 3 | 0.876 | inactive
WDR27 | 1 | -0.619 | inactive
WDR27 | 2 | -1.85 | inactive
WDR27 | 3 | -0.41 | inactive
ARHGEF10L | 1 | 0.0783 | inactive
ARHGEF10L | 2 | 0.744 | inactive
ARHGEF10L | 3 | -1.29 | inactive
SPATA25 | 1 | 1.62 | inactive
SPATA25 | 2 | 8.11 | active
SPATA25 | 3 | 2.05 | inactive
CCNA2 | 1 | -1.23 | inactive
CCNA2 | 2 | 1.66 | inactive
CCNA2 | 3 | -1.1 | inactive
GZMH | 1 | -0.0401 | inactive
GZMH | 2 | 1.25 | inactive
GZMH | 3 | 3.84 | active
EIPR1 | 1 | -0.432 | inactive
EIPR1 | 2 | 3.05 | active
EIPR1 | 3 | -1.19 | inactive
B3GALT5 | 1 | 1.6 | inactive
B3GALT5 | 2 | 2.48 | inactive
B3GALT5 | 3 | -0.0351 | inactive
ACTG1P20 | 1 | 1.88 | inactive
ACTG1P20 | 2 | 1.43 | inactive
ACTG1P20 | 3 | 1.24 | inactive
RASGRF2 | 1 | -0.228 | inactive
RASGRF2 | 2 | 0.489 | inactive
RASGRF2 | 3 | -1.68 | inactive
FNDC3B | 1 | 1.08 | inactive
FNDC3B | 2 | -0.0856 | inactive
FNDC3B | 3 | -1.51 | inactive
PYY | 1 | 0.052 | inactive
PYY | 2 | -0.306 | inactive
PYY | 3 | 0.495 | inactive
LEF1 | 1 | 0.561 | inactive
LEF1 | 2 | -0.148 | inactive
LEF1 | 3 | 0.793 | inactive
CTU2 | 1 | -0.33 | inactive
CTU2 | 2 | -0.655 | inactive
CTU2 | 3 | 0.665 | inactive
TRIM6 | 1 | -0.125 | inactive
TRIM6 | 2 | -1.45 | inactive
TRIM6 | 3 | -0.0339 | inactive
CEP290 | 1 | -0.416 | inactive
CEP290 | 2 | -0.412 | inactive
CEP290 | 3 | 0.586 | inactive
